For this test, the system named is CD8F1 mice, subcutaneous mammary adenocarcinoma, T/C%. Put plainly: NCI In Vivo Anticancer Drug Screen. Data for tumor model Mammary Adenocarcinoma CD8F1 (subcutaneous) in CD8F1. The note with it: higher T/C = larger tumour. An outline of the steps:
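Ratio of treated to vehicle-control outcome, based on either survival or tumor size, in mice bearing transplantable tumors given the test compound.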

Where [1] appears, read: T/C endpoint: median tumor weight change, dose: 500.0 mg/kg/injection, schedule: Q01DX001 (ip), vehicle: Klucel (hydroxypropylcellulose) (HPC).
The mark [2] stands for this setting: T/C endpoint: median tumor weight change, dose: 1000.0 mg/kg/injection, schedule: Q01DX001 (ip), vehicle: Klucel (hydroxypropylcellulose) (HPC).
The mark [3] stands for this setting: T/C endpoint: median tumor weight change, dose: 1000.0 mg/kg/injection, schedule: Q01DX001 (ip), vehicle: saline with Tween-80.
Where [4] appears, read: T/C endpoint: median tumor weight change, dose: 2000.0 mg/kg/injection, schedule: Q01DX001 (ip), vehicle: saline with Tween-80.

This note sets out measurements from PubChem BioAssay AID220 (DTP/NCI, 2004).

The list is a part of this screen's results and no random one: it is rich in T/C values a quarter to a half above the control, in often repeated tests (any T/C) and in doses without a T/C. Further doses and runs are listed elsewhere. T/C gives the treated animals as a percentage of the vehicle group. Schedule codes are those of the source, read here as Q, the interval in days (D) or hours (H), X, the number of doses. Some T/C values carry the count of animals alive at the toxicity check (mostly the fifth day); without a count, all were alive then. Some entries give survivors of the animals treated and no T/C: the source files T/C as zero there, which appears to mark a toxic dose or a test without result, not a measured value. Counts of survivors are from the toxicity check (mostly the fifth day) where no day follows; animals may have died later. Some entries were tested several times; the results are listed from low to high.

Regarding `COC(=O)C(Cl)(Cl)N=Nc1c(Cl)cc(Cl)c(C)c1Cl`, the T/C is, setting by setting: (T/C endpoint: median tumor weight (est.), dose: 25.0 mg/kg/injection, schedule: Q07DX005 (ip), vehicle: saline with Tween-80, evaluated on day 30) 131 % of control; (T/C endpoint: median tumor weight (est.), dose: 100.0 mg/kg/injection, schedule: Q07DX005 (ip), vehicle: saline with Tween-80, evaluated on day 30) 136 % of control. The survivor count by setting is: (T/C endpoint: median tumor weight change, dose: 800.0 mg/kg/injection, schedule: Q01DX001 (ip), vehicle: saline with Tween-80) 5 of 10 on day 28; (T/C endpoint: median tumor weight change, dose: 1600.0 mg/kg/injection, schedule: Q01DX001 (ip), vehicle: saline with Tween-80) 2 of 10 on day 28; (T/C endpoint: median tumor weight change, dose: 3200.0 mg/kg/injection, schedule: Q01DX001 (ip), vehicle: saline with Tween-80) 0 of 10 on day 28.

`COC(=O)Nc1cn2cc(C(=O)c3cccs3)ccc2n1`: the survivor count under setting [1] is listed as 5 of 10 on day 29 and the survivor count under setting [2] is recorded as 1 of 10 on day 29.

Regarding `CC(Oc1ccccc1-c1ccccc1)C(=O)N(C)C` (stereo not drawn), the survivor count is reported as 0 of 10 on day 28 under setting [3] and 0 of 10 on day 28 under setting [4].

In the case of `Nc1ncnc2c1ncn2C1OC(CO)C(O)C1O` (stereo not drawn), the T/C is 130 % of control [9 of 10 alive] (T/C endpoint: median tumor weight (est.), dose: 32.0 mg/kg/injection, schedule: Q07DX005 (ip), vehicle: Klucel (hydroxypropylcellulose) (HPC), evaluated on day 32); 133 % of control (T/C endpoint: median tumor weight (est.), dose: 64.0 mg/kg/injection, schedule: Q07DX005 (ip), vehicle: Klucel (hydroxypropylcellulose) (HPC), evaluated on day 32); 134 % of control (T/C endpoint: median tumor weight (est.), dose: 128.0 mg/kg/injection, schedule: Q07DX005 (ip), vehicle: Klucel (hydroxypropylcellulose) (HPC), evaluated on day 30).

With `Cn1c(=O)c2ncnnc2n(C)c1=O`, the survivor count is, setting by setting: (T/C endpoint: median tumor weight (est.), dose: 37.5 mg/kg/injection, schedule: Q07DX005 (ip), vehicle: Klucel (hydroxypropylcellulose) (HPC)) 0 of 10 on day 30; (T/C endpoint: median tumor weight (est.), dose: 75.0 mg/kg/injection, schedule: Q07DX005 (ip), vehicle: Klucel (hydroxypropylcellulose) (HPC)) 0 of 10 on day 30.

For the molecule `NC(=O)c1ccc[n+](Cc2c(Cl)cccc2Cl)c1`, the T/C (T/C endpoint: median tumor weight (est.), dose: 24.0 mg/kg/injection, schedule: Q07DX005 (ip), vehicle: saline, evaluated on day 30) is 145 % of control.

On to `CS(=O)(=O)Nc1ccc(C(=O)CCN2CCCCCC2)cc1`, for which the survivor count is given as 6 of 10 on day 29 (T/C endpoint: median tumor weight change, dose: 1000.0 mg/kg/injection, schedule: Q01DX001 (ip), vehicle: suspension in saline) and 6 of 10 on day 29 (T/C endpoint: median tumor weight change, dose: 2000.0 mg/kg/injection, schedule: Q01DX001 (ip), vehicle: suspension in saline).

As to `c1ccc(SSc2ccccn2)nc1`, the T/C (T/C endpoint: mean tumor weight, dose: 50.0 mg/kg/injection, schedule: Q07DX006 (ip), vehicle: saline, evaluated on day 37) is 126 % of control.

As to `COC(=O)C[C@](O)(CCC(C)(C)O)C(=O)O[C@@H]1C(OC)=C[C@]23CCCN2CCc2cc4c(cc2[C@H]13)OCO4`, the survivor count was 4 of 10 on day 35 (T/C endpoint: median tumor weight change, dose: 10.0 mg/kg/injection, schedule: Q01DX001 (ip), vehicle: saline); 0 of 10 on day 35 and 1 of 10 on day 28 (T/C endpoint: median tumor weight change, dose: 20.0 mg/kg/injection, schedule: Q01DX001 (ip), vehicle: saline).

`Nc1ccc2ccc(NS(=O)(=O)N3CCCCC3)cc2c1`: under setting [4], the survivor count is given as 1 of 10 on day 27.

Take `CN(C)C=O`: where the note is “T/C endpoint: median tumor weight (est.), dose: 200.0 mg/kg/injection, schedule: Q07DX005 (ip), vehicle: saline, evaluated on day 30”, the T/C is 129 % of control [9 of 10 alive on day 30]. Moreover, the survivor count by setting is: (T/C endpoint: median tumor weight (est.), dose: 1600.0 mg/kg/injection, schedule: Q07DX005 (ip), vehicle: saline) 5 of 10 on day 30; (T/C endpoint: median tumor weight (est.), dose: 3200.0 mg/kg/injection, schedule: Q07DX005 (ip), vehicle: saline) 5 of 10 on day 30.

`CC[As](=O)(O)CC`: the T/C (T/C endpoint: mean tumor weight, dose: 50.0 mg/kg/injection, schedule: Q07DX005 (ip), vehicle: saline, evaluated on day 35) was 132 % of control [8 of 10 alive] and the T/C (T/C endpoint: median tumor weight (est.), dose: 50.0 mg/kg/injection, schedule: Q07DX005 (ip), vehicle: saline, evaluated on day 30) is 141 % of control. Also, the survivor count (T/C endpoint: median tumor weight (est.), dose: 400.0 mg/kg/injection, schedule: Q07DX005 (ip), vehicle: saline) was 0 of 10 on day 30.

As to `O=c1nc(Oc2ccccc2)nc2ncccn12`, the survivor count (T/C endpoint: median tumor weight (est.), dose: 200.0 mg/kg/injection, schedule: Q07DX005 (ip), vehicle: saline with Tween-80) is listed as 3 of 10 on day 32.

In the case of `C[n+]1c(-c2cccc3ccccc23)c2cc(N)ccc2c2ccccc21`, under “T/C endpoint: median tumor weight (est.), dose: 25.0 mg/kg/injection, schedule: Q07DX005 (ip), vehicle: saline”, the survivor count is recorded as 5 of 10.

On to `O=CC(S)CO` (stereo not drawn), for which the T/C (T/C endpoint: median tumor weight (est.), dose: 12.5 mg/kg/injection, schedule: Q07DX005 (ip), vehicle: suspension in saline, evaluated on day 30) was 147 % of control [9 of 10 alive].

As to `O=NN(CCCl)C(=O)NCCCl`, the T/C (T/C endpoint: median tumor weight (est.), dose: 4.0 mg/kg/injection, schedule: Q07DX005 (ip), vehicle: saline with Tween-80, evaluated on day 30) is 130 % of control. For the same molecule, the survivor count (T/C endpoint: median tumor weight (est.), dose: 32.0 mg/kg/injection, schedule: Q07DX005 (ip), vehicle: saline with Tween-80) is reported as 2 of 10 on day 30; the survivor count (T/C endpoint: median tumor weight change, dose: 62.5 mg/kg/injection, schedule: Q01DX001 (ip), vehicle: saline with Tween-80) is 4 of 10 on day 28; the survivor count (T/C endpoint: median tumor weight change, dose: 125.0 mg/kg/injection, schedule: Q01DX001 (ip), vehicle: saline + alcohol) was 2 of 10 on day 30; the survivor count (T/C endpoint: median tumor weight change, dose: 125.0 mg/kg/injection, schedule: Q01DX001 (ip), vehicle: saline with Tween-80) was 0 of 10 on day 28.

In the case of `ClC(Cl)(Cl)C1=NCc2nnn(Cc3ccccc3)c2N1`, the T/C (T/C endpoint: median tumor weight (est.), dose: 50.0 mg/kg/injection, schedule: Q07DX005 (ip), vehicle: saline with Tween-80, evaluated on day 30) was 146 % of control [9 of 10 alive on day 30].

With `C=C(C)C(=NC(C)(C)C)Nc1ccccc1`, the survivor count is 0 of 10 on day 36 (T/C endpoint: median tumor weight change, dose: 500.0 mg/kg/injection, schedule: Q01DX001 (ip), vehicle: saline with Tween-80) and 1 of 10 on day 36 under setting [3].

Regarding `CC1=C[C@@]23[C@H](C=C(C(=O)O)[C@@H]2COC(=O)[C@]32CO2)[C@@H]1C`, the survivor count is, setting by setting: (T/C endpoint: median tumor weight change, dose: 8.75 mg/kg/injection, schedule: Q01DX001 (ip), vehicle: saline) 3 of 10 on day 32; (T/C endpoint: median tumor weight change, dose: 17.5 mg/kg/injection, schedule: Q01DX001 (ip), vehicle: saline) 4 of 10 on day 32; (T/C endpoint: median tumor weight change, dose: 35.0 mg/kg/injection, schedule: Q01DX001 (ip), vehicle: saline) 0 of 10 on day 32; (T/C endpoint: median tumor weight change, dose: 70.0 mg/kg/injection, schedule: Q01DX001 (ip), vehicle: saline) 0 of 10 on day 32.

As to `CC(=O)N(C)C`, under “T/C endpoint: median tumor weight change, dose: 7200.0 mg/kg/injection, schedule: Q01DX001 (ip), vehicle: saline”, the survivor count is 0 of 10 on day 27 and 0 of 10 on day 32.

As to `O=NN(CCF)C(=O)NC1CCCCC1`, the T/C (T/C endpoint: median tumor weight change, dose: 8.0 mg/kg/injection, schedule: Q01DX001 (ip), vehicle: Klucel (hydroxypropylcellulose) (HPC), evaluated on day 29) is 137 % of control. The survivor count reads like this: (T/C endpoint: median tumor weight change, dose: 125.0 mg/kg/injection, schedule: Q01DX001 (ip), vehicle: Klucel (hydroxypropylcellulose) (HPC)) 0 of 10 on day 32; (T/C endpoint: median tumor weight change, dose: 250.0 mg/kg/injection, schedule: Q01DX001 (ip), vehicle: Klucel (hydroxypropylcellulose) (HPC)) 0 of 10 on day 32; under setting [1], 0 of 10 on day 32; under setting [2], 0 of 10 on day 32.
